These results are taken from patent publication US20150056210A1.

No constants are given. Whether binding was seen depends on the method and setting. Some results given as binding are weak or reduced against the parent protein; the word gives no strength. Where a sequence is shown, tags or fusion partners need not be part of it.

The target in assay [1] is T1, ADAMTS-5 3×FLAG full length (human) (UniProt Q9UNA0).
T1 sequence: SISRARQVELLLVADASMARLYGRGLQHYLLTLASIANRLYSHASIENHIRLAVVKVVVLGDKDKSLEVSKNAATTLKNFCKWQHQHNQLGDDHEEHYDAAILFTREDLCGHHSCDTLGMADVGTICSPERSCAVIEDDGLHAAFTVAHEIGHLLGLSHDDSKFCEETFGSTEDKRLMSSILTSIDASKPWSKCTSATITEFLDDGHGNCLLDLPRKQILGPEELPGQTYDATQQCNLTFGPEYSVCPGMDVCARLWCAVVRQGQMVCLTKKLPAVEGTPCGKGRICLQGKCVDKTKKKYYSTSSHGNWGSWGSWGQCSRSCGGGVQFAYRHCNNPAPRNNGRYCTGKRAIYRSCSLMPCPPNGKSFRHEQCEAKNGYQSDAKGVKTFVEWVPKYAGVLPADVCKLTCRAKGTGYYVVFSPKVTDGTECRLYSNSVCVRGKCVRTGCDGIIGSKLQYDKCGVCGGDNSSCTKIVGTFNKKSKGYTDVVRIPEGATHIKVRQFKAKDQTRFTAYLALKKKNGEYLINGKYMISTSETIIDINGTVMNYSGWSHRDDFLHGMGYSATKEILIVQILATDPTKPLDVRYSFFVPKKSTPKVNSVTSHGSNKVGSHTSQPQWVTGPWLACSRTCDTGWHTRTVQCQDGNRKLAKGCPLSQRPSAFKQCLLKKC
Description: immunoprecipitation with Protein G, anti-FLAG immunoblot. On the technique in general: A western blot detects proteins with antibodies after separation by electrophoresis.

The target of assay [2] is T2, ADAMTS-4 3×FLAG full length (human) (UniProt O75173).
T2 sequence: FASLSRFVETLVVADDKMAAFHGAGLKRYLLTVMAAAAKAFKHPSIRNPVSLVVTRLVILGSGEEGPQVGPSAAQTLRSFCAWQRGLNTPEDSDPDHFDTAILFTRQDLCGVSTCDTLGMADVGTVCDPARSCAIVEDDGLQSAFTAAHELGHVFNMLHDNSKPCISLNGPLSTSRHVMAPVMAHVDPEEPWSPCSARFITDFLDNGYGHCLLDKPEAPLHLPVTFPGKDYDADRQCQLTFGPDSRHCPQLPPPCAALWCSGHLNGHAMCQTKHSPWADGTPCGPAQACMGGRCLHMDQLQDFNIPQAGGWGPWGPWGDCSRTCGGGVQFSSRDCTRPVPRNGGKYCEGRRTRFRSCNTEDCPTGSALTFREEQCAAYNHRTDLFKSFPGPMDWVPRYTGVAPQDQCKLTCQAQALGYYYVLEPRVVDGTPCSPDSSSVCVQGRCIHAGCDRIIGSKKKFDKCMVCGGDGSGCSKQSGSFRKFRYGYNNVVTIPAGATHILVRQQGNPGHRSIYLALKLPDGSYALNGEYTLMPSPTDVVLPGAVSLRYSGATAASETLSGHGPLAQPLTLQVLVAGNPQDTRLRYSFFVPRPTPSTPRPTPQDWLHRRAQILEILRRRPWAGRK
The assay is described as above.

Assay [3] addresses T1, ADAMTS-5 3×FLAG full length (human). The assay is described as follows: immunoprecipitation of 0.1 µg TS5-FL with 11, 22 and 25 µg antibody, anti-FLAG immunoblot.
Assay [4] shares this target. Description: cell ELISA on FreeStyle 293-F cells stably expressing ADAMTS-5 3×FLAG. On the technique in general: An ELISA detects its analyte on a solid surface through an enzyme-linked reagent.
The target is the same in assay [5]. Description: sandwich ELISA, antibody coated at 2 µg/mL, conditioned medium, anti-FLAG detection.
The target is the same in assay [6]. Description: cell ELISA on FreeStyle 293-F cells stably expressing ADAMTS-5 3×FLAG, antibody at 10-5-2 µg/ml.
Assay [7] concerns the target T2, ADAMTS-4 3×FLAG full length (human). The assay is described as follows: immunoprecipitation of 0.2 µg TS4-FL with 30 and 60 µg antibody, anti-FLAG immunoblot.
Assay [8] has as its target T1, ADAMTS-5 3×FLAG full length (human). Description: sandwich ELISA, antibody coated at 2 µg/mL, purified ADAMTS-5 at 4 µg/ml, anti-FLAG detection.

B1: CRB0017_IgG4 (antibody, V domains shown)
VH: QVQLQQSGAELAKPGASVKMSCKASGYTFTSYWMHWVKQRPGQGLEWIGYINPSTGYTEYNQKFKDKATLTADKSSSTAYMQLGSLTSEDSAVYYCARGGYDDLGYWGQGTTLTVSS
VL: DIVITQDELSNPVTSGESVSISCRSSKSLLYKDGKTYLYWFLQRPGQSPQLPIYLMSTRASGVSDRFSGSGSGTDFTLEISRVKAEDVGVYYCQQLVEYPYTFGGGTKLEIK
B1: the binding entry in assay [1], in assay [2], in assay [3], in assay [4], in assay [5] and in assay [6] was “binds” each time. For the same molecule, the binding entry in assay [7] and in assay [8] was “binds” each time.

B2: CRB0124_IgG4 (antibody, V domains shown)
VH: QVQLVQSGSDVKKPGASVRVSCKVSGYRLTEYPIHWVRQAPGKGLEYMGGFDLENGVTKAAPRFRGRFTMTEDTSTDSVYMELKSLTSEDTAVYYCVKGPGYGALVTSFTSWGLGTTVTVSS
VL: SYVLTQPPSVSVSPGQTASITCSGDKLEDKYACWYQQKPGQSPVLVIYHDYKRPSGIPERFSGSNSGNTATLTISRVEGGDEADYYCQVWDSGSDDQVFGGGTKLTVL
As to B2, in assay [8], the binding entry was “binds”.

B3: CRB0094_IgG4 (antibody, V domains shown)
VH: QVQLQQWGAGLLKPSGTLSLTCAVYGGSFSGYYWSWIRQPPGKGLEWIGEINHSGSTNYNPSLKSRVTISVDTSKNQFSLKLSSVTAADTAVYYCARTIWSTRHDFWSGYYSSNWFDPWGQGTLVTVSS
VL: QSVLTQPPSASGSPGQSVTISCTGTSSDVGGYNYVSWYQQHPGKAPKLLIYDVSNRPSGVSSRFSGSKSGNSASLTISGLQAEDEADYYCSSYTRRSTLEFGGGTKLTVL
In the case of B3, the binding result in assay [8] is on record as “binds”.

B4: CRB0123_IgG4 (antibody, V domains shown)
VH: QVQLQESGGGVVQPGRSLRLSCAASGFTFSGYGMNWVRQAPGTGLEWVATISFDGTDKYYADSVKGRFTISRDNAENTLYLQMNSLRAEDMAVYYCARDWSYAMDVWGQGTMVTVSS
VL: DIQMTQSPSSVSASVGDRVTITCRPSQGIGKYSAWYQQKPGKAPELPIYLASTLQSGVPSRFSDSGSGTEFTLTISSLQPEDFATYYCLQRNTYPWTFGQGTKVEIK
As to B4, the binding result in assay [8] was “binds”.
